Assay results: PubChem BioAssay (NCATS)
Shown are results outside the selection of hits, which stands elsewhere. Results filed as inconclusive are left out. Calls of active or inactive are those of the source. Unless noted, calls come from the whole dose curve; as a rule, active = well fitted curve in the direction sought with a large enough effect; inconclusive = small, poorly fitted or top-dose-only effect, or another doubt; inactive = no such curve, though single readings can be large; an effect the other way counts as inactive or inconclusive.

Columns and labels:
[1] = target: Mitogen-activated protein kinase 10 (Mus musculus) (UniProt Q61831); assay: JNK3 AlphaScreen Assay (AID 530; active = well fitted curve in either direction with a large enough effect, not every such curve was filed as active;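 note: kinase came from lysate of stimulated human HepG2 cells; signal reports phosphorylation of biotinylated GST-cJun 1-79 at Ser73 with 10 µM ATP; % is set by controls: 0 for no effect and ±100 for the full control effect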); conditions: JNK3 lysate, c-Jun phosphorylation; at 11.4 µM (top of the series) unless noted
Outline: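 Biotinylated GST-cJun(1-79) served as substrate for JNK3 in HepG2 lysates stimulated with IL-1beta and TNF-alpha. ATP was 10 uM final, pH 7.6. Ser73 phosphorylation was quantified by AlphaScreen (680 nm excitation).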

[2] = Cell Viability - N2a (AID 540); conditions: N2a mouse neuroblastoma cell viability; at 92.2 µM (top of the series);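 note: plate controls were DMSO alone for no effect and tamoxifen control for full effect; nearly all actives have a fitted effect of over 45% in size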
Outline: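 N2a mouse neuroblastoma, 1500 cells/well, 5 hr settle; compound 40 hr, 37 °C; CellTiter-Glo 20 min RT; luminescence; Hill-fit AC50.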

[3] = Cell Viability - NIH 3T3 (AID 541); conditions: NIH 3T3 cell viability, qHTS; at 92.2 µM (top of the series);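 note: cells exposed to compound for 40 hours; plate controls were DMSO alone for no effect and tamoxifen positive control for full effect; nearly all actives have a fitted effect of over 25% in size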
Outline: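 qHTS format; 40 hr compound exposure, 37 °C; CellTiter-Glo luminescence (cellular ATP) read-out after 20 min at RT. Decrease in ATP = cytotoxicity; AC50 from standard Hill fit.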

[4] = Cell Viability - HUV-EC-C (AID 542); conditions: HUV-EC-C endothelial cell viability, qHTS; at 92.2 µM (top of the series);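 note: cells exposed to compound for 40 hours; % is set by controls: 0 for no effect and ±100 for the full control effect; nearly all actives have a fitted effect of over 35% in size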
Outline: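 Luminescent ATP read-out (CellTiter-Glo, 20 min room temperature) after 40 hr compound treatment of HUV-EC-C cells at 37 °C. Concentration-response data fitted with the standard Hill equation to give AC50; tamoxifen and doxorubicin served as positive controls.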

[5] = Cell Viability - H-4-II-E (AID 543); conditions: H-4-II-E rat hepatoma viability; at 92.2 µM (top of the series);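 note: cells exposed to compound for 40 hours; % is set by controls: 0 for no effect and ±100 for the full control effect; nearly all actives have a fitted effect of over 35% in size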
Outline: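 qHTS, rat hepatoma H-4-II-E, 1500 cells/well; 40 hr compound exposure, 37 °C; CellTiter-Glo ATP luminescence after 20 min RT; AC50 by standard Hill fit.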

[6] = Cell Viability - SH-SY5Y (AID 544); conditions: SH-SY5Y neuroblastoma cell viability; at 92.2 µM (top of the series);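 note: cells exposed to compound for 40 hours; 0% = DMSO alone and -100% = 100 µM tamoxifen; nearly all actives have a fitted effect of over 55% in size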
Outline: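 SH-SY5Y, 1500 cells/well, 5 hr pre-incubation 37 °C; cpd 40 hr 37 °C; CellTiter-Glo 20 min RT; luminescence (ATP) read. qHTS concentration-response, Hill fit → AC50. Tamoxifen, doxorubicin as positive controls.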

[7] = Cell Viability - Renal Proximal Tubule (AID 545); conditions: renal proximal tubule cells viability, primary cells of rat origin; at 91.7 µM (top of the series);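 note: cells exposed to compound for 40 hours; 0% = DMSO only and -100% = 100 µM tamoxifen; nearly all actives have a fitted effect of over 40% in size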
Outline: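 Luminescent ATP signal (CellTiter-Glo) served as the viability read-out after 40 hr compound exposure of freshly isolated rat proximal tubule cells at 37 °C. Concentration-dependent ATP loss was fitted with the Hill equation to give AC50.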

[8] = Cell Viability - Mesenchymal (AID 546); conditions: mesenchymal cells viability, qHTS; at 91.7 µM (top of the series);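 note: cells exposed to compound for 40 hours before reading; 0% = DMSO only and -100% = 100 µM tamoxifen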
Outline: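 In this qHTS cytotoxicity format, glomerulus-derived human mesenchymal kidney cells received compound for 40 hr, then luciferase-based ATP quantitation. Concentration-response data were fitted with the Hill equation.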

[9] = Cell Viability - LYMP2-001 (AID 921); conditions: LYMP2-001 lymphoblastoid cell viability; at 92.2 µM (top of the series);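 note: 0% = DMSO only and full inhibition = tetraoctylammonium bromide control wells; nearly all actives have a fitted effect of over 70% in size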
Outline: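 Steps: seed 2500 lymphoblastoid cells/well; 5 hr, 37 C; add compound; 24 hr, 37 C; CellTiter-Glo reagent, 30 min room temperature; read luminescence. Concentration-response modeled by Hill equation for AC50.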

[10] = Cell Viability - LYMP1-002 - Assay at 16 hr (AID 948); conditions: LYMP1-002 lymphoblastoid cell viability; at 92.2 µM (top of the series);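 note: 0% = DMSO alone and full effect = 92 µM tetraoctylammonium bromide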
Outline: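 Seed 2500 LYMP1-002 cells per well in complete medium and hold 5 hr at 37 C. Add compound across a concentration series and incubate 16 hr at 37 C. Add CellTiter-Glo, wait 30 min at room temperature, read luminescence.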

[11] = Cell Viability - LYMP1-003 - Assay at 24 hr (AID 963); conditions: LYMP1-003 lymphoblastoid cell viability; at 92.2 µM (top of the series);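 note: plate controls were DMSO only for no effect and tetraoctylammonium bromide positive control for full effect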
Outline: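 CellTiter-Glo luminescence (intracellular ATP) read after 24 hr, 37 C compound exposure of 2500 LYMP1-003 human lymphoblastoid cells/well in complete medium; qHTS concentration series; AC50 via standard Hill equation.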

[12] = Cell Viability - LYMP1-003 - Assay at 40 hr (AID 964); conditions: LYMP1-003 lymphoblastoid viability; at 92.2 µM (top of the series); note: % is set by controls: 0 for no effect and ±100 for the full control effect; nearly all actives have a fitted effect of over 60% in size
Outline: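 LYMP1-003 lymphoblastoid cells, 2500/well; 5 hr preincubation, 40 hr compound exposure, 37 C; CellTiter-Glo 30 min RT; luminescence; Hill-fit AC50. Positive control tetraoctylammonium bromide.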

[13] = Cell Viability - LYMP2-003 (AID 965); conditions: LYMP2-003 lymphoblastoid cell viability; at 92.2 µM (top of the series);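 note: cells exposed to compounds for 24 h before reading; 0% = DMSO only and full effect = 92 µM tetraoctylammonium bromide; nearly all actives have a fitted effect of over 50% in size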
Outline: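 Seed 2500 lymphoblastoid cells/well; incubate 5 hr, 37 C; add compounds; incubate 24 hr, 37 C; add CellTiter-Glo, 30 min RT; read luminescence. AC50 from Hill fit.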

[14] = Cell Viability - LYMP2-004 (AID 966); conditions: LYMP2-004 lymphoblastoid cell viability, qHTS; at 92.2 µM (top of the series);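 note: plate controls were DMSO only for no effect and tetraoctylammonium bromide control for full effect; nearly all actives have a fitted effect of over 65% in size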
Outline: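 Luminescent ATP read-out (CellTiter-Glo, 30 min RT) after 24 hr compound exposure at 37 C; 2500 lymphoblastoid cells/well, complete medium. Decrease in ATP = cytotoxicity; AC50 from standard Hill model.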

[15] = Cell Viability - LYMP2-011 (AID 969); conditions: LYMP2-011 lymphoblastoid cells viability; at 92.2 µM (top of the series);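 note: cells exposed to compound for 24 hours; 0% = DMSO only and full inhibition = 92 µM tetraoctylammonium bromide; nearly all actives have a fitted effect of over 60% in size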
Outline: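 Luminescent ATP read-out (CellTiter-Glo, 30 min RT) after 24 hr compound exposure at 37 C in human lymphoblastoid cells, 2500 cells/well. Decreasing ATP indicates cytotoxicity; AC50 from standard Hill fit.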

[16] = Cell Viability - LYMP2-013 (AID 970); conditions: LYMP2-013 lymphoblastoid cells viability; at 92.2 µM (top of the series);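 note: 0% = DMSO only and full inhibition = tetraoctylammonium bromide control; nearly all actives have a fitted effect of over 55% in size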
Outline: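 CellTiter-Glo luminescence (cellular ATP) read after 30 min at RT. Cells: human lymphoblastoid line, 2500/well, 24 hr compound exposure at 37 C. Tetraoctylammonium bromide positive control; AC50 via standard Hill fit of qHTS titrations.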

[17] = Cell Viability - LYMP2-017 (AID 972); conditions: LYMP2-017 lymphoblastoid cell viability; at 92.2 µM (top of the series);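 note: cells exposed to compound for 24 hours at 37 °C; % is set by controls: 0 for no effect and ±100 for the full control effect; nearly all actives have a fitted effect of over 55% in size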
Outline: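 Luminescent ATP read-out (CellTiter-Glo, 30 min RT) reports viable cell number. Cells: human lymphoblastoid line, 2500 per well, 5 hr preincubation, 24 hr compound exposure at 37 C. AC50 is derived from qHTS concentration-response data using the standard Hill model.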

[18] = Cell Viability - LYMP2-019 (AID 973); conditions: LYMP2-019 lymphoblastoid cell line viability; at 92.2 µM (top of the series);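 note: 0% = DMSO alone and full effect = 92 µM tetraoctylammonium bromide; nearly all actives have a fitted effect of over 55% in size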
[19] = Cell Viability - LYMP2-021 (AID 974); conditions: LYMP2-021 lymphoblastoid cells viability; at 92.2 µM (top of the series)
Outline: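 ATP luminescence (CellTiter-Glo, 30 min RT) after 24 h compound exposure at 37 C; 2500 human lymphoblastoid cells/well, 5 h settle beforehand. Cytotoxicity = concentration-dependent ATP drop, AC50 by Hill fit.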

[20] = Cell Viability - LYMP2-023 (AID 975); conditions: LYMP2-023 lymphoblastoid cell viability; at 92.2 µM (top of the series)
Outline: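 CellTiter-Glo luminescence after 30 min at room temperature; decrease in intracellular ATP reflects toxicity. Cells: human lymphoblastoid line, 2500/well, 24 hr compound exposure at 37 C. AC50 fitted to standard Hill equation from concentration-response.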

[21] = Cell Viability - LYMP2-025 (AID 976); conditions: LYMP2-025 lymphoblastoid cell viability; at 92.2 µM (top of the series);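 note: plate controls were DMSO only for no effect and tetraoctylammonium bromide control for full effect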
Outline: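 CellTiter-Glo luminescence (cellular ATP) after 24 h compound exposure at 37 C; LYMP2-025 human lymphoblastoid cells, 2500/well, complete medium. Tetraoctylammonium bromide positive control. AC50 by Hill equation fit of qHTS concentration-response.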

[22] = Cell Viability - LYMP2-002 (AID 977); conditions: LYMP2-002 lymphoblastoid cell viability, qHTS; at 92.2 µM (top of the series);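 note: plate controls were DMSO only for no effect and 92 µM tetraoctylammonium bromide for full effect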
Outline: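 In this qHTS viability screen, 2500 human lymphoblastoid cells per well receive compound for 24 hr at 37 C, and luciferase-based ATP luminescence gives the viability signal. Tetraoctylammonium bromide serves as positive control.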

[23] = Cell Viability - LYMP2-006 (AID 978); conditions: LYMP2-006 lymphoblastoid cell viability, qHTS; at 92.2 µM (top of the series);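 note: cells exposed to compound for 24 hours; % is set by controls: 0 for no effect and ±100 for the full control effect; nearly all actives have a fitted effect of over 60% in size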
Outline: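 Cells are seeded at 2500 per well and rested 5 hr at 37 C. Compounds are added across a concentration series for 24 hr at 37 C, after which ATP is quantified by luciferase luminescence.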

[24] = Cell Viability - LYMP2-007 (AID 979); conditions: LYMP2-007 lymphoblastoid cell viability; at 92.2 µM (top of the series);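 note: cells exposed to compound for 24 h before reading; 0% = DMSO only and the negative end = 92 µM tetraoctylammonium bromide; nearly all actives have a fitted effect of over 60% in size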
[25] = Cell Viability - LYMP2-008 (AID 980); conditions: LYMP2-008 lymphoblastoid cell viability, qHTS; at 92.2 µM (top of the series)
Outline: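 Luminescent ATP read-out (CellTiter-Glo, 30 min RT) after 24 hr compound exposure at 37 C of human lymphoblastoid cells in complete medium. Decrease in ATP taken as cytotoxicity; AC50 derived by standard Hill fit of qHTS concentration-response data.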

[26] = Cell Viability - LYMP2-010 (AID 981); conditions: LYMP2-010 lymphoblastoid cell viability, qHTS; at 92.2 µM (top of the series)
Outline: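 qHTS cytotoxicity, 1536-well: 2500 cells/well, 5 hr settle, 24 hr compound at 37 C, CellTiter-Glo 30 min RT, luminescence read. Decrease in ATP = toxicity; AC50 via standard Hill equation. Positive control tetraoctylammonium bromide.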

[27] = Cell Viability - LYMP2-012 (AID 982); conditions: LYMP2-012 lymphoblastoid cell viability qHTS; at 92.2 µM (top of the series)
[28] = Cell Viability - LYMP2-014 (AID 983); conditions: LYMP2-014 lymphoblastoid cells, viability qHTS; at 92.2 µM (top of the series);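 note: plate controls were DMSO only for no effect and 92 µM tetraoctylammonium bromide for full effect; nearly all actives have a fitted effect of over 50% in size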
[29] = Cell Viability - LYMP2-016 (AID 984); conditions: LYMP2-016 lymphoblastoid cell viability, qHTS; at 92.2 µM (top of the series)
Outline: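 Cells were seeded at 2500 per well and rested 5 hr before a 24 hr compound exposure at 37 C. Viability was then gauged as cellular ATP by luciferase luminescence, with AC50 values fitted to the Hill equation.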

[30] = Cell Viability - LYMP2-018 (AID 985); conditions: LYMP2-018 lymphoblastoid cells, viability (qHTS); at 92.2 µM (top of the series);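 note: plate controls were DMSO only for no effect and tetraoctylammonium bromide at 92 µM for full effect; nearly all actives have a fitted effect of over 50% in size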
Outline: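 2500 cells/well; 5 hr 37 C; cmpd 24 hr 37 C, complete medium; CellTiter-Glo 30 min RT; luminescence. Tetraoctylammonium bromide positive control. AC50 via Hill fit.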

[31] = Cell Viability - LYMP2-022 (AID 987); conditions: LYMP2-022 lymphoblastoid cell viability; at 92.2 µM (top of the series)
Outline: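 Luminescent ATP read-out (CellTiter-Glo, 30 min, RT) after 24 hr, 37 C compound exposure of 2500 human lymphoblastoid cells/well in complete medium. Cytotoxicity taken as concentration-dependent ATP loss; AC50 from standard Hill equation.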

[32] = Cell Viability - LYMP2-024 (AID 988); conditions: LYMP2-024 lymphoblastoid cell viability; at 92.2 µM (top of the series)
[33] = Cell Viability - LYMP2-026 (AID 989); conditions: LYMP2-026 lymphoblastoid cell viability, qHTS; at 92.2 µM (top of the series); note: % is set by controls: 0 for no effect and ±100 for the full control effect; nearly all actives have a fitted effect of over 50% in size
Outline: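 qHTS cytotoxicity: 2500 cells/well, 5 hr 37 C, compound 24 hr 37 C, CellTiter-Glo 30 min RT, luminescence. Tetraoctylammonium bromide positive control. AC50 via standard Hill fit.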

Nc1ccc(N)c([N+](=O)[O-])c1
inactive: activity change, negative = inhibition [1] 7.81% [at 57.1 µM] | activity change, negative = cytotoxicity [2] -1.03% | activity change, negative = cytotoxicity [3] -19.3% | activity change, negative = cytotoxicity [4] -8.43% | activity change, negative = cytotoxic [5] -13.9% | viability change, negative = cytotoxic [6] -20.6% | activity change, negative = cytotoxicity [7] 6.36% | activity change, negative = cytotoxicity [8] -4.47% | activity change, negative = cytotoxic [9] -24.9% | activity change, negative = cytotoxicity [10] -8.91% | viability change, negative = cytotoxic [11] -9.25% | activity change, negative = cytotoxic [12] -20.7% | activity change, negative = cytotoxicity [13] -4.28% | activity change, negative = cytotoxicity [14] -3.56% | viability change, negative = cytotoxic [15] -0.621% | activity change, negative = cytotoxic [16] -8.25% | activity change, negative = cytotoxicity [17] -23.9% | activity change, negative = cytotoxicity [18] -10.8% | activity change, negative = cytotoxicity [19] -6.86% | activity change, negative = cytotoxicity [20] -0.727% | activity change, negative = cytotoxicity [21] -10.2% | activity change, negative = cytotoxic [22] -10.7% | activity change, negative = cytotoxicity [23] -3.22% | activity change, negative = cytotoxicity [24] -8.02% | activity change, negative = cytotoxicity [25] -10.9% | activity, negative = cytotoxicity [26] -19.3% | activity change, negative = cytotoxicity [27] -6.26% | activity change, negative = cytotoxicity [28] 2.49% | activity change, negative = cytotoxicity [29] -6.06% | activity change, negative = cytotoxicity [30] -17.4% | viability change, negative = cytotoxic [31] -20.9% | activity change, negative = cytotoxicity [32] -13.9% | activity change, negative = cytotoxic [33] 0.273%
